Patent US20190060308A1, “PHARMACEUTICAL COMPOSITION COMPRISING AN OMEGA-3 FATTY ACID AND A HYDROXY-DERIVATIVE OF A STATIN AND METHODS OF USING SAME” (Amarin Pharmaceuticals Ireland Limited, priority 2012, published 2019)
At least one compound was matched to its structure with a doubt left.

Test system: NOS3 (eNOS)
Experiment: eNOS (NOS3) expression by qPCR in HUVECs
Format: cell-based, human
Settings: normalized against ACTB, compared to vehicle, HUVECs exposed to oxLDL

SMILES: CC/C=C\C/C=C\C/C=C\C/C=C\C/C=C\CCCC(=O)O [EPA, eicosapentaenoic acid]
- changes in eNOS expression: no changes
